The values below come from article doi:10.1101/2022.01.25.477707 (bioRxiv, 2022).

The target of assay [1] is G5_(845-1508)-L1367P-TAP (human) (UniProt Q8TEQ6). The assay can be described thus: co-IP.
The target in assay [2] is G5_(845-1508)-WT-TAP (human) (UniProt Q8TEQ6). The assay can be described thus: co-IP.

Results are given in words; binding and its absence hold for the method and conditions named. Binding seen in cells or lysates may run through a third protein. Some binding calls cover weakened binding; strength is not graded here.

B1: Gemin5 endogenous protein (natural protein, human (endogenous in HEK293), UniProt Q8TEQ6 1-1508, looked up)
chain: MGQEPRTLPPSPNWYCARCSDAVPGGLFGFAARTSVFLVRVGPGAGESPGTPPFRVIGELVGHTERVSGFTFSHHPGQYNLCATSSDDGTVKIWDVETKTVVTEHALHQHTISTLHWSPRVKDLIVSGDEKGVVFCYWFNRNDSQHLFIEPRTIFCLTCSPHHEDLVAIGYKDGIVVIIDISKKGEVIHRLRGHDDEIHSIAWCPLPGEDCLSINQEETSEEAEITNGNAVAQAPVTKGCYLATGSKDQTIRIWSCSRGRGVMILKLPFLKRRGGGIDPTVKERLWLTLHWPSNQPTQLVSSCFGGELLQWDLTQSWRRKYTLFSASSEGQNHSRIVFNLCPLQTEDDKQLLLSTSMDRDVKCWDIATLECSWTLPSLGGFAYSLAFSSVDIGSLAIGVGDGMIRVWNTLSIKNNYDVKNFWQGVKSKVTALCWHPTKEGCLAFGTDDGKVGLYDTYSNKPPQISSTYHKKTVYTLAWGPPVPPMSLGGEGDRPSLALYSCGGEGIVLQHNPWKLSGEAFDINKLIRDTNSIKYKLPVHTEISWKADGKIMALGNEDGSIEIFQIPNLKLICTIQQHHKLVNTISWHHEHGSQPELSYLMASGSNNAVIYVHNLKTVIESSPESPVTITEPYRTLSGHTAKITSVAWSPHHDGRLVSASYDGTAQVWDALREEPLCNFRGHRGRLLCVAWSPLDPDCIYSGADDFCVHKWLTSMQDHSRPPQGKKSIELEKKRLSQPKAKPKKKKKPTLRTPVKLESIDGNEEESMKENSGPVENGVSDQEGEEQAREPELPCGLAPAVSREPVICTPVSSGFEKSKVTINNKVILLKKEPPKEKPETLIKKRKARSLLPLSTSLDHRSKEELHQDCLVLATAKHSRELNEDVSADVEERFHLGLFTDRATLYRMIDIEGKGHLENGHPELFHQLMLWKGDLKGVLQTAAERGELTDNLVAMAPAAGYHVWLWAVEAFAKQLCFQDQYVKAASHLLSIHKVYEAVELLKSNHFYREAIAIAKARLRPEDPVLKDLYLSWGTVLERDGHYAVAAKCYLGATCAYDAAKVLAKKGDAASLRTAAELAAIVGEDELSASLALRCAQELLLANNWVGAQEALQLHESLQGQRLVFCLLELLSRHLEEKQLSEGKSSSSYHTWNTGTEGPFVERVTAVWKSIFSLDTPEQYQEAFQKLQNIKYPSATNNTPAKQLLLHICHDLTLAVLSQQMASWDEAVQALLRAVVRSYDSGSFTIMQEVYSAFLPDGCDHLRDKLGDHQSPATPAFKSLEAFFLYGRLYEFWWSLSRPCPNSSVWVRAGHRTLSVEPSQQLDTASTEETDPETSQPEPNRPSELDLRLTEEGERMLSTFKELFSEKHASLQNSQRTVAEVQETLAEMIRQHQKSQLCKSTANGPDKNEPEVEAEQPLCSSQSQCKEEKNEPLSLPELTKRLTEANQRMAKFPESIKAWPFPDVLECCLVLLLIRSHFPGCLAQEMQQQAQELLQKYGNTKTYRRHCQTFCM
For the molecule B1, the binding result in assay [1] and in assay [2] was “binds” each time.
